Test results as given in patent US20240209062A1 (INVETX, published 2024).
Results are given in words; binding and its absence hold for the method and conditions named. Some results given as binding are weak or reduced against the parent protein; the word gives no strength. Sequences can lack the tags named with a protein.

Protein sequences, listed by entry. Tags and fused reporters are not part of them. Lines headed by an entry give the natural chain unless they say otherwise; changes in a name come on top.
UniProt Q5MGS7: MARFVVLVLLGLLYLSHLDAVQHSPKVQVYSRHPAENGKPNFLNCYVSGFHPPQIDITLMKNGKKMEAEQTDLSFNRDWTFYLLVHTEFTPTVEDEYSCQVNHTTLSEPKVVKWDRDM

B1: IgG with feline IgG1a Fc variant S252M, T286E (antibody)
heavy: DVQLVESGGDLVKPGGSLRLTCVASGLSLTSDSMSWVRQAPGKGLQWVSTLWSNRGTYYTDSVKGRFTISKDNAENTLYLQMNNLKTEDTATYYCASIYYYEADYLHWYFDFWGQGALVTVSSASTTAPSVFPLAPSCGTTSGATVALACLVLGYFPEPVTVSWNSGALTSGVHTFPAVLQASGLYSLSSMVTVPSSRWLSDTFTCNVAHPPSNTKVDKTVRKTDHPPGPKPCDCPKCPPPEAAGGPSIFIFPPKPKDTLMISRTPEVTCLVVDLGPDDSDVQITWFVDNTQVYEAKTSPREEQFNSTYRVVSVLPILHQDWLKGKEFKCKVNSKSLPSPIERTISKAKGQPHEPQVYVLPPAQEELSRNKVSVTCLIKSFHPPDIAVEWEITGQPEPENNYRTTPPQLDSDGTYFVYSKLSVDRSHWQRGNTYTCSVSHEALHSHHTQKSLTQSPG
light: EIQMTQSPTSLSASVGDRVTITCRASEGIANNLSWYQQTPGKAPKLLIYATSNLHSGVPSRFSGSGSGTDFTLTISSLQPEDFATYYCQQGFKWPLTFGGGTKLEITRSDAQPSVFLFQPSLDELHTGSASIVCILNDFYPKEVNVKWKVDGVVQNKGIQESTTEQNSKDSTYSLSSTLTMSSTEYQSHEKFSCEVTHKSLASTLVKSFNRSECQRE
notes: IgG1a constant domain with MALA mutations (M234A, L244A as printed); variable domains from WO 2023/97275
B2: IgG with feline IgG1a Fc variant S252Y (antibody)
heavy: DVQLVESGGDLVKPGGSLRLTCVASGLSLTSDSMSWVRQAPGKGLQWVSTLWSNRGTYYTDSVKGRFTISKDNAENTLYLQMNNLKTEDTATYYCASIYYYEADYLHWYFDFWGQGALVTVSSASTTAPSVFPLAPSCGTTSGATVALACLVLGYFPEPVTVSWNSGALTSGVHTFPAVLQASGLYSLSSMVTVPSSRWLSDTFTCNVAHPPSNTKVDKTVRKTDHPPGPKPCDCPKCPPPEAAGGPSIFIFPPKPKDTLYISRTPEVTCLVVDLGPDDSDVQITWFVDNTQVYTAKTSPREEQFNSTYRVVSVLPILHQDWLKGKEFKCKVNSKSLPSPIERTISKAKGQPHEPQVYVLPPAQEELSRNKVSVTCLIKSFHPPDIAVEWEITGQPEPENNYRTTPPQLDSDGTYFVYSKLSVDRSHWQRGNTYTCSVSHEALHSHHTQKSLTQSPG
light: EIQMTQSPTSLSASVGDRVTITCRASEGIANNLSWYQQTPGKAPKLLIYATSNLHSGVPSRFSGSGSGTDFTLTISSLQPEDFATYYCQQGFKWPLTFGGGTKLEITRSDAQPSVFLFQPSLDELHTGSASIVCILNDFYPKEVNVKWKVDGVVQNKGIQESTTEQNSKDSTYSLSSTLTMSSTEYQSHEKFSCEVTHKSLASTLVKSFNRSECQRE
notes: as for B1
B3: IgG with feline IgG1a Fc variant S252Y, I377L (antibody)
heavy: DVQLVESGGDLVKPGGSLRLTCVASGLSLTSDSMSWVRQAPGKGLQWVSTLWSNRGTYYTDSVKGRFTISKDNAENTLYLQMNNLKTEDTATYYCASIYYYEADYLHWYFDFWGQGALVTVSSASTTAPSVFPLAPSCGTTSGATVALACLVLGYFPEPVTVSWNSGALTSGVHTFPAVLQASGLYSLSSMVTVPSSRWLSDTFTCNVAHPPSNTKVDKTVRKTDHPPGPKPCDCPKCPPPEAAGGPSIFIFPPKPKDTLYISRTPEVTCLVVDLGPDDSDVQITWFVDNTQVYTAKTSPREEQFNSTYRVVSVLPILHQDWLKGKEFKCKVNSKSLPSPIERTISKAKGQPHEPQVYVLPPAQEELSRNKVSVTCLIKSFHPPDLAVEWEITGQPEPENNYRTTPPQLDSDGTYFVYSKLSVDRSHWQRGNTYTCSVSHEALHSHHTQKSLTQSPG
light: EIQMTQSPTSLSASVGDRVTITCRASEGIANNLSWYQQTPGKAPKLLIYATSNLHSGVPSRFSGSGSGTDFTLTISSLQPEDFATYYCQQGFKWPLTFGGGTKLEITRSDAQPSVFLFQPSLDELHTGSASIVCILNDFYPKEVNVKWKVDGVVQNKGIQESTTEQNSKDSTYSLSSTLTMSSTEYQSHEKFSCEVTHKSLASTLVKSFNRSECQRE
notes: Printed '1377L' read as I377L; IgG1a constant domain with MALA mutations (M234A, L244A as printed); variable domains from WO 2023/97275; also called S252Y, 1377L
B4: IgG with feline IgG1a Fc variant S252Y, I377Y (antibody)
heavy: DVQLVESGGDLVKPGGSLRLTCVASGLSLTSDSMSWVRQAPGKGLQWVSTLWSNRGTYYTDSVKGRFTISKDNAENTLYLQMNNLKTEDTATYYCASIYYYEADYLHWYFDFWGQGALVTVSSASTTAPSVFPLAPSCGTTSGATVALACLVLGYFPEPVTVSWNSGALTSGVHTFPAVLQASGLYSLSSMVTVPSSRWLSDTFTCNVAHPPSNTKVDKTVRKTDHPPGPKPCDCPKCPPPEAAGGPSIFIFPPKPKDTLYISRTPEVTCLVVDLGPDDSDVQITWFVDNTQVYTAKTSPREEQFNSTYRVVSVLPILHQDWLKGKEFKCKVNSKSLPSPIERTISKAKGQPHEPQVYVLPPAQEELSRNKVSVTCLIKSFHPPDYAVEWEITGQPEPENNYRTTPPQLDSDGTYFVYSKLSVDRSHWQRGNTYTCSVSHEALHSHHTQKSLTQSPG
light: EIQMTQSPTSLSASVGDRVTITCRASEGIANNLSWYQQTPGKAPKLLIYATSNLHSGVPSRFSGSGSGTDFTLTISSLQPEDFATYYCQQGFKWPLTFGGGTKLEITRSDAQPSVFLFQPSLDELHTGSASIVCILNDFYPKEVNVKWKVDGVVQNKGIQESTTEQNSKDSTYSLSSTLTMSSTEYQSHEKFSCEVTHKSLASTLVKSFNRSECQRE
notes: Printed '1377Y' read as I377Y; IgG1a constant domain with MALA mutations (M234A, L244A as printed); variable domains from WO 2023/97275; also called S252Y, 1377Y
B5: IgG with feline IgG1a Fc variant S252Y, L309D (antibody)
heavy: DVQLVESGGDLVKPGGSLRLTCVASGLSLTSDSMSWVRQAPGKGLQWVSTLWSNRGTYYTDSVKGRFTISKDNAENTLYLQMNNLKTEDTATYYCASIYYYEADYLHWYFDFWGQGALVTVSSASTTAPSVFPLAPSCGTTSGATVALACLVLGYFPEPVTVSWNSGALTSGVHTFPAVLQASGLYSLSSMVTVPSSRWLSDTFTCNVAHPPSNTKVDKTVRKTDHPPGPKPCDCPKCPPPEAAGGPSIFIFPPKPKDTLYISRTPEVTCLVVDLGPDDSDVQITWFVDNTQVYTAKTSPREEQFNSTYRVVSVLPIDHQDWLKGKEFKCKVNSKSLPSPIERTISKAKGQPHEPQVYVLPPAQEELSRNKVSVTCLIKSFHPPDIAVEWEITGQPEPENNYRTTPPQLDSDGTYFVYSKLSVDRSHWQRGNTYTCSVSHEALHSHHTQKSLTQSPG
light: EIQMTQSPTSLSASVGDRVTITCRASEGIANNLSWYQQTPGKAPKLLIYATSNLHSGVPSRFSGSGSGTDFTLTISSLQPEDFATYYCQQGFKWPLTFGGGTKLEITRSDAQPSVFLFQPSLDELHTGSASIVCILNDFYPKEVNVKWKVDGVVQNKGIQESTTEQNSKDSTYSLSSTLTMSSTEYQSHEKFSCEVTHKSLASTLVKSFNRSECQRE
notes: as for B1
B6: IgG with feline IgG1a Fc variant S252Y, L309V (antibody)
heavy: DVQLVESGGDLVKPGGSLRLTCVASGLSLTSDSMSWVRQAPGKGLQWVSTLWSNRGTYYTDSVKGRFTISKDNAENTLYLQMNNLKTEDTATYYCASIYYYEADYLHWYFDFWGQGALVTVSSASTTAPSVFPLAPSCGTTSGATVALACLVLGYFPEPVTVSWNSGALTSGVHTFPAVLQASGLYSLSSMVTVPSSRWLSDTFTCNVAHPPSNTKVDKTVRKTDHPPGPKPCDCPKCPPPEAAGGPSIFIFPPKPKDTLYISRTPEVTCLVVDLGPDDSDVQITWFVDNTQVYTAKTSPREEQFNSTYRVVSVLPIVHQDWLKGKEFKCKVNSKSLPSPIERTISKAKGQPHEPQVYVLPPAQEELSRNKVSVTCLIKSFHPPDIAVEWEITGQPEPENNYRTTPPQLDSDGTYFVYSKLSVDRSHWQRGNTYTCSVSHEALHSHHTQKSLTQSPG
light: EIQMTQSPTSLSASVGDRVTITCRASEGIANNLSWYQQTPGKAPKLLIYATSNLHSGVPSRFSGSGSGTDFTLTISSLQPEDFATYYCQQGFKWPLTFGGGTKLEITRSDAQPSVFLFQPSLDELHTGSASIVCILNDFYPKEVNVKWKVDGVVQNKGIQESTTEQNSKDSTYSLSSTLTMSSTEYQSHEKFSCEVTHKSLASTLVKSFNRSECQRE
notes: as for B1
B7: IgG with feline IgG1a Fc variant S252Y, R301L (antibody)
heavy: DVQLVESGGDLVKPGGSLRLTCVASGLSLTSDSMSWVRQAPGKGLQWVSTLWSNRGTYYTDSVKGRFTISKDNAENTLYLQMNNLKTEDTATYYCASIYYYEADYLHWYFDFWGQGALVTVSSASTTAPSVFPLAPSCGTTSGATVALACLVLGYFPEPVTVSWNSGALTSGVHTFPAVLQASGLYSLSSMVTVPSSRWLSDTFTCNVAHPPSNTKVDKTVRKTDHPPGPKPCDCPKCPPPEAAGGPSIFIFPPKPKDTLYISRTPEVTCLVVDLGPDDSDVQITWFVDNTQVYTAKTSPREEQFNSTYLVVSVLPILHQDWLKGKEFKCKVNSKSLPSPIERTISKAKGQPHEPQVYVLPPAQEELSRNKVSVTCLIKSFHPPDIAVEWEITGQPEPENNYRTTPPQLDSDGTYFVYSKLSVDRSHWQRGNTYTCSVSHEALHSHHTQKSLTQSPG
light: EIQMTQSPTSLSASVGDRVTITCRASEGIANNLSWYQQTPGKAPKLLIYATSNLHSGVPSRFSGSGSGTDFTLTISSLQPEDFATYYCQQGFKWPLTFGGGTKLEITRSDAQPSVFLFQPSLDELHTGSASIVCILNDFYPKEVNVKWKVDGVVQNKGIQESTTEQNSKDSTYSLSSTLTMSSTEYQSHEKFSCEVTHKSLASTLVKSFNRSECQRE
notes: as for B1
B8: IgG with feline IgG1a Fc variant S252Y, R301V (antibody)
heavy: DVQLVESGGDLVKPGGSLRLTCVASGLSLTSDSMSWVRQAPGKGLQWVSTLWSNRGTYYTDSVKGRFTISKDNAENTLYLQMNNLKTEDTATYYCASIYYYEADYLHWYFDFWGQGALVTVSSASTTAPSVFPLAPSCGTTSGATVALACLVLGYFPEPVTVSWNSGALTSGVHTFPAVLQASGLYSLSSMVTVPSSRWLSDTFTCNVAHPPSNTKVDKTVRKTDHPPGPKPCDCPKCPPPEAAGGPSIFIFPPKPKDTLYISRTPEVTCLVVDLGPDDSDVQITWFVDNTQVYTAKTSPREEQFNSTYVVVSVLPILHQDWLKGKEFKCKVNSKSLPSPIERTISKAKGQPHEPQVYVLPPAQEELSRNKVSVTCLIKSFHPPDIAVEWEITGQPEPENNYRTTPPQLDSDGTYFVYSKLSVDRSHWQRGNTYTCSVSHEALHSHHTQKSLTQSPG
light: EIQMTQSPTSLSASVGDRVTITCRASEGIANNLSWYQQTPGKAPKLLIYATSNLHSGVPSRFSGSGSGTDFTLTISSLQPEDFATYYCQQGFKWPLTFGGGTKLEITRSDAQPSVFLFQPSLDELHTGSASIVCILNDFYPKEVNVKWKVDGVVQNKGIQESTTEQNSKDSTYSLSSTLTMSSTEYQSHEKFSCEVTHKSLASTLVKSFNRSECQRE
notes: as for B1
B9: IgG with feline IgG1a Fc variant S252Y, R301Y (antibody)
heavy: DVQLVESGGDLVKPGGSLRLTCVASGLSLTSDSMSWVRQAPGKGLQWVSTLWSNRGTYYTDSVKGRFTISKDNAENTLYLQMNNLKTEDTATYYCASIYYYEADYLHWYFDFWGQGALVTVSSASTTAPSVFPLAPSCGTTSGATVALACLVLGYFPEPVTVSWNSGALTSGVHTFPAVLQASGLYSLSSMVTVPSSRWLSDTFTCNVAHPPSNTKVDKTVRKTDHPPGPKPCDCPKCPPPEAAGGPSIFIFPPKPKDTLYISRTPEVTCLVVDLGPDDSDVQITWFVDNTQVYTAKTSPREEQFNSTYYVVSVLPILHQDWLKGKEFKCKVNSKSLPSPIERTISKAKGQPHEPQVYVLPPAQEELSRNKVSVTCLIKSFHPPDIAVEWEITGQPEPENNYRTTPPQLDSDGTYFVYSKLSVDRSHWQRGNTYTCSVSHEALHSHHTQKSLTQSPG
light: EIQMTQSPTSLSASVGDRVTITCRASEGIANNLSWYQQTPGKAPKLLIYATSNLHSGVPSRFSGSGSGTDFTLTISSLQPEDFATYYCQQGFKWPLTFGGGTKLEITRSDAQPSVFLFQPSLDELHTGSASIVCILNDFYPKEVNVKWKVDGVVQNKGIQESTTEQNSKDSTYSLSSTLTMSSTEYQSHEKFSCEVTHKSLASTLVKSFNRSECQRE
notes: as for B1

target: feline FcRn (soluble portion of large subunit p51 isoform X1 with C-terminal 6xHis-tag, co-expressed with feline beta2-microglobulin with C-terminal STREP-TAG II) (feline) (UniProt Q5MGS7); assay: SPR, pH 5.9

binding, binds:
B1, B2, B3, B4, B5, B6, B7, B8, B9
